Data as given in patent US20040242871A1, “Novel arylheteroalkylamine derivatives” (priority 2001, published 2004).
Where a name gives a salt, the structure may show the parent alone. Some entries share one result that the patent states for a list of compounds.

What was measured:
[1] = molecular target: T1, Recombinant human iNOS (Homo sapiens, UniProt P35228); assay: Screen 2: recombinant human NO synthase inhibition, L-[3H]citrulline formation from L-[3H]arginine; format: biochemical; conditions: recombinant human iNOS expressed in E. coli, 60 min pre-incubation with NADPH, 3 μM [3H]arginine; read-out: IC50 against the iNOS enzyme
T1 construct: made in house; host or cells: E. coli (lysates in Hepes buffer with co-factors, lysozyme, CHAPS)

[2] = molecular target: T2, human form of induced nitric oxide synthase in DLD-1 cells (Homo sapiens, UniProt P35228); assay: Screen 3: nitrite accumulation (Griess) in cytokine-induced DLD-1 cells; format: cell-based; conditions: DLD-1 cells induced with gamma-IFN, TNF-alpha, IL-6, IL-1-beta; 5 hours with compound; read-out: IC50 (inhibition of nitrite accumulation)
T2 construct: Nitric oxide synthase was induced in cells by addition of medium containing human recombinant gamma-IFN; endogenous in cells; host or cells: DLD-1 human colorectal carcinoma cells (ECACC 90102540), induced with gamma-IFN, TNF-alpha, IL-6 and IL-1-beta

SMILES	IC50 [1] [µM]	IC50 [2] [µM]
N#Cc1cc(Br)ccc1S[C@H](C[C@H](N)CO)c1ccccc1 [Example 65, 2-[[(1R,3S)-3-Amino-4-hydroxy-1-phenylbutyl]thio]-5-bromo-benzonitrile ethanedioate]	< 10	< 100
N#Cc1cc(F)c(Cl)cc1O[C@H](C[C@H](N)CO)c1scnc1Cl.O=C(O)/C=C/C(=O)O [Example 61, 2-[[(1R,3S)-3-Amino-1-(4-chloro-5-thiazolyl)-4-hydroxybutyl]oxy]-4-chloro-5-fluorobenzonitrile (E)-butenedioate salt]	< 10	< 100
Cl.N#Cc1ccc(Cl)cc1S[C@H](C[C@H](N)CO)c1cncnc1 [Example 56, 2-[[(1R,3S)-3-Amino-4-hydroxy-1-(5-pyrimidyl)butyl]thio]-4-chlorobenzonitrile hydrochloride]	< 10	< 100
N[C@H](CO)C[C@@H](Sc1ncc(Cl)cc1Cl)c1cccc(F)c1 [Example 42, 2(2S)-Amino-4(4R)-(3-fluorophenyl)-4-[(3.5-dichloro-2-pyridyl)thio]butan-1-ol]	< 10	< 100
CC(C)c1ccc(C#N)c(S[C@H](C[C@H](N)CO)c2ccccc2)n1 [Example 18, 2-[[(1R,3S)-3-Amino-4-hydroxy-1-phenylbutyl]thio]-6-(1-methylethyl)-3-pyridinecarbonitrile ethanedioate]	< 10	< 100
N#Cc1ccc(C(F)(F)F)nc1O[C@H](C[C@H](N)CO)c1ccc(F)cc1.O=C(O)C(=O)O [Example 36, 2-[[(1R,3S)-3-Amino-1-(4-fluorophenyl)-4-hydroxybutyl]oxy]-6-trifluoromethyl-3-pyridinecarbonitrile ethanedioate]	< 10	< 100
N[C@H](CO)C[C@@H](Sc1ccc(Cl)cc1[N+](=O)[O-])c1cccc(F)c1 [Example 38, 2(2S)-Amino-4(4R)-(3-fluorophenyl)-4-[(4-chloro-2-nitrophenyl)thio]butan-1-ol]	< 10	< 100
Cc1ccc(C#N)c(SC(C[C@H](N)CO)c2ccno2)n1.O=C(O)/C=C/C(=O)O (stereo partly drawn) [Example 51, 2-[[(3S)-3-Amino-4-hydroxy-1-(5-isoxazolyl)butyl]thio]-6-methyl-3-pyridinecarbonitrile (E)-butenedioate]	< 10	< 100
N#Cc1cnc(OC(F)F)cc1S[C@H](C[C@H](N)CO)c1ccccc1.O=C(O)/C=C/C(=O)O [Example 14, 4-[[(1R,3S)-3-Amino-4-hydroxy-1-phenylbutyl]thio]-6-(difluoromethoxy)-3-pyridinecarbonitrile (E)-butenedioate]	< 10	< 100
Nc1ccc(S[C@H](C[C@H](N)CO)c2ccccc2)c([N+](=O)[O-])c1 [Example 64, β-Amino-δ-[(4-amino-2-nitrophenyl)thio]-(β^1S,δ^1R)-benzenebutanol]	< 10	< 100
CC(C)(O)[C@@H](N)C[C@@H](Oc1cc(Cl)c(F)cc1C#N)c1ccccc1.O=C(O)C(=O)O [Example 47, 2-[[(1R,3S)-3-Amino-4-hydroxy-4-methyl-1-phenylpentyl]oxy]-4-chloro-5-fluoro benzonitrile ethanedioate]	< 10	< 100
N#Cc1cnc(N)cc1S[C@H](C[C@H](N)CO)c1ccccc1 [Example 33, 6-Amino-4-[[(1R,3S)-3-amino-4-hydroxy-1-phenylbutyl]thio]-3-pyridinecarbonitrile (E)-butenedioate]	< 10	< 100
Cl.Cl.N#Cc1cc(F)c(Cl)cc1S[C@H](C[C@H](N)CO)c1cccnc1 [Example 57, 2-[[(1R,3S)-3-Amino-4-hydroxy-1-(3-pyridinyl)butyl]thio]-4-chloro-5-fluorobenzonitrile dihydrochloride]	< 10	< 100
N[C@H](CO)C[C@@H](Sc1ccc(CO)cc1[N+](=O)[O-])c1cccc(F)c1 [Example 40]	< 10	< 100
CCCC[C@@H](C[C@H](N)CO)Sc1nc(C)ccc1C#N [Example 49, 2-[[(1S)-1-[(2S)-2-Amino-3-hydroxypropyl]pentyl]thio]-6-methyl-3-pyridinecarbonitrile ethanedioate]	< 10	< 100
N#Cc1cc([N+](=O)[O-])ccc1S[C@H](C[C@H](N)CO)c1ccccc1 [Example 62, 2-[[(1R,3S)-3-Amino-4-hydroxy-1-phenylbutyl]thio]-5-nitrobenzonitrile hydrochloride]	< 10	< 100
Cc1nc(O[C@H](C[C@H](N)CO)c2nccs2)c(C#N)cc1F.Cl [Example 59, 2-[[(1R,3S)-3-Amino-4-hydroxy-1-(2-thiazolyl)butyl]oxy]-5-fluoro-6-methyl-3-pyridinecarbonitrile hydrochloride]	< 10	< 100
N#Cc1ncc(Cl)cc1S[C@H](C[C@H](N)CO)c1ccccc1 [Example 32, 3-[[(1R,3S)-3-Amino-4-hydroxy-1-phenylbutyl]thio]-5-chloro-2-pyridinecarbonitrile ethanedioate]	< 10	< 100
COc1cc(S[C@@H](C[C@H](N)CO)c2ccccc2)c(C#N)cn1.O=C(O)/C=C/C(=O)O [Example 13, 4-[[(1S,3S)-3-Amino-4-hydroxy-1-phenylbutyl]thio]-6-methoxy-3-pyridinecarbonitrile (E)-butenedioate]	< 10	< 100
Cl.Cl.N#Cc1ccc(C(F)(F)F)cc1S[C@H](C[C@H](N)CO)c1cccnc1 [Example 55, 2-[[(1R,3S)-3-Amino-4-hydroxy-1-(3-pyridinyl)butyl]thio]-4-(trifluoromethyl)benzonitrile dihydrochloride]	< 10	< 100
N#Cc1ccc(S[C@H](C[C@H](N)CO)c2ccccc2)c(Cl)c1.O=C(O)C(=O)O [Example 43, 4-[[(1R,3S)-3-Amino-4-hydroxy-1-phenylbutyl]thio]-3-chlorobenzonitrile ethanedioate]	< 10	< 100
CN(C)c1cc(S[C@H](C[C@H](N)CO)c2ccccc2)c(C#N)cn1 [Example 25, 4-[[(1R,3S)-3-Amino-4-hydroxy-1-phenylbutyl]thio]-6-(dimethylamino)-3-pyridinecarbonitrile (E)-2-butenedioate]	< 10	< 100
N[C@H](CO)C[C@@H](Sc1ccc(F)cc1[N+](=O)[O-])c1cccc(F)c1 [Example 41, 2(2S)-Amino-4(4R)-(3-fluorophenyl)-4-[(4-fluoro-2-nitrophenyl)thio]butan-1-ol]	< 10	< 100
N#Cc1ccc(CO)nc1S[C@H](C[C@H](N)CO)c1ccccc1.O=C(O)/C=C/C(=O)O [Example 21, 2-[[(1R,3S)-3-Amino-4-hydroxy-1-phenylbutyl]thio]-6-(hydroxymethyl)-3-pyridinecarbonitrile (E)-butenedioate]	< 10	< 100
Cc1ccc(C#N)c(S[C@@H](CC(C)C)C[C@H](N)CO)n1 [Example 50, 2-[[(1S,3S)-3-Amino-4-hydroxy-1-(2-methylpropyl)butyl]thio]-6-methyl-3-pyridinecarbonitrile ethanedioate]	< 10	< 100
CC(=O)c1ccc(C#N)c(S[C@H](C[C@H](N)CO)c2ccccc2)n1.Cl [Example 20, 6-Acetyl-2-[[(1R,3S)-3-amino-4-hydroxy-1-phenylbutyl]thio]-3-pyridinecarbonitrile Hydrochloride]	< 10	< 100
COc1nc(S[C@H](C[C@H](N)CO)c2ccccc2)c(C#N)cc1F [Example 24, 2-[[(1R,3S)-3-Amino-4-hydroxy-1-phenylbutyl]thio]-5-fluoro-6-methoxy-3-pyridinecarbonitrile-(E)-butenedioate]	< 10	< 100
COc1ccc(S[C@H](C[C@H](N)CO)c2cccc(F)c2)c([N+](=O)[O-])c1 [Example 37, 2-(2S)-Amino-4-(4R)-(3-fluorophenl)-4-[(4-methoxy-2-nitrophenyl)thio]butan-1-ol]	< 10	< 100
N[C@H](CO)C[C@@H](Sc1cc(Cl)ncc1Cl)c1ccccc1 [Example 23, (β^1S,δ^1R)-β-Amino-δ-[(2,5-dichloro-4-pyridinyl)thiobenzenebutanol] Hydrochloride]	< 10	< 100
